Data on two molecules can be found in paper PMC11463774, “Structure of the Nmd4-Upf1 complex supports conservation of the nonsense-mediated mRNA decay pathway between yeast and humans” (PLOS Biology, 2024).

The target of assay [1] is T1, Upf1-HD-His6 (S. cerevisiae Upf1 helicase domain, residues 221 to 851) (S. cerevisiae) (UniProt P30771).
T1 sequence: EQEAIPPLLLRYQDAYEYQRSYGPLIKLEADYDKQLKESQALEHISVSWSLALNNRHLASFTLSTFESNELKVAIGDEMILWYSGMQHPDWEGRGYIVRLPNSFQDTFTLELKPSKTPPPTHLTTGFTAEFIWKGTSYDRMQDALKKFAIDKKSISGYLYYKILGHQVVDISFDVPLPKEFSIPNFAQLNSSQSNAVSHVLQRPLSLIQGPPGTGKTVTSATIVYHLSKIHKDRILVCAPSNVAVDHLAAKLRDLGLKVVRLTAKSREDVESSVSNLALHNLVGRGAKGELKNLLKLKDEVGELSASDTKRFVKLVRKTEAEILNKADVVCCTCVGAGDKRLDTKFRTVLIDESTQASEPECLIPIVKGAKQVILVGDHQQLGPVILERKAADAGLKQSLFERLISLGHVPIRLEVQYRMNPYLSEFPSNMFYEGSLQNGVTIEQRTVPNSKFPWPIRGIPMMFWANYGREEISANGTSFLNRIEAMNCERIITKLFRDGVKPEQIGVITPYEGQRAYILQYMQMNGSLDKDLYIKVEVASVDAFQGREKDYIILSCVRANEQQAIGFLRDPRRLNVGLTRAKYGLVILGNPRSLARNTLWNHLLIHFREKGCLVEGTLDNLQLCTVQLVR
The assay is described as follows: condition: 330 μM Nmd4 PIN injected into 30 to 35 μM Upf1-HD-His6; ITC; His6-ZZ-Nmd4 proteins (260 μM full-length and « arm », 330 μM PIN) or His6-ZZ (277 μM) injected into Upf1-HD-His6 (30 to 35 μM); 20°C; 100 mM Bis-Tris pH 6.5, 200 mM NaCl, 5 mM MgCl2, 5 mM 2-mercaptoethanol; one-binding-site model; both purified.

Assay [2] concerns the target T2, His6-ZZ-Nmd4 PIN domain (residues 1 to 167) (S. cerevisiae) (UniProt Q12129).
T2 sequence: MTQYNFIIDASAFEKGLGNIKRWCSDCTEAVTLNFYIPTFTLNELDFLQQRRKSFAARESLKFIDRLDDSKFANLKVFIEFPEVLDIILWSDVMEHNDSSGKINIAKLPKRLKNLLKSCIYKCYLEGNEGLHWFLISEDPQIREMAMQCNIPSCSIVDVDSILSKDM
As to the kind of experiment: pull-down; His-pull-down: 0.5 nmol His6-ZZ-Nmd4 proteins with 0.5 nmol untagged Upf1-HD proteins, HisPur Ni-NTA magnetic beads; 20 mM Tris-HCl pH 7.5, 150 mM NaCl, 50 mM imidazole, 10% glycerol; 4°C; Coomassie; both purified.

Results are given in words; binding and its absence hold for the method and conditions named. Sequences can lack the tags named with a protein.

B1: His6-ZZ-Nmd4 PIN domain (residues 1 to 167) (domain or fragment, UniProt Q12129 1-167)
chain: MTQYNFIIDASAFEKGLGNIKRWCSDCTEAVTLNFYIPTFTLNELDFLQQRRKSFAARESLKFIDRLDDSKFANLKVFIEFPEVLDIILWSDVMEHNDSSGKINIAKLPKRLKNLLKSCIYKCYLEGNEGLHWFLISEDPQIREMAMQCNIPSCSIVDVDSILSKDM
Regarding B1, the binding result in assay [1] is “no binding”.

B2: untagged Upf1-HD wild-type (S. cerevisiae Upf1 residues 221 to 851) (domain or fragment, UniProt P30771 221-851)
chain: EQEAIPPLLLRYQDAYEYQRSYGPLIKLEADYDKQLKESQALEHISVSWSLALNNRHLASFTLSTFESNELKVAIGDEMILWYSGMQHPDWEGRGYIVRLPNSFQDTFTLELKPSKTPPPTHLTTGFTAEFIWKGTSYDRMQDALKKFAIDKKSISGYLYYKILGHQVVDISFDVPLPKEFSIPNFAQLNSSQSNAVSHVLQRPLSLIQGPPGTGKTVTSATIVYHLSKIHKDRILVCAPSNVAVDHLAAKLRDLGLKVVRLTAKSREDVESSVSNLALHNLVGRGAKGELKNLLKLKDEVGELSASDTKRFVKLVRKTEAEILNKADVVCCTCVGAGDKRLDTKFRTVLIDESTQASEPECLIPIVKGAKQVILVGDHQQLGPVILERKAADAGLKQSLFERLISLGHVPIRLEVQYRMNPYLSEFPSNMFYEGSLQNGVTIEQRTVPNSKFPWPIRGIPMMFWANYGREEISANGTSFLNRIEAMNCERIITKLFRDGVKPEQIGVITPYEGQRAYILQYMQMNGSLDKDLYIKVEVASVDAFQGREKDYIILSCVRANEQQAIGFLRDPRRLNVGLTRAKYGLVILGNPRSLARNTLWNHLLIHFREKGCLVEGTLDNLQLCTVQLVR
In the case of B2, the binding result in assay [2] was “no binding (tested: 0.5 nmol of each protein in 60 μL)”.
